PubChem BioAssay AID1259424, University of Nebraska Medical Center | 2018
Here is a random part of about 14,000 deposited reagents. 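Higher correlation or smaller distance means closer resemblance to KSR1 loss; control wells, including KSR1 knockdowns, recur on many plates.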 The record does not give: the time to read-out.

Test: 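Rank knockdowns across the genome by resemblance to the KSR1 depletion profile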 (primary screen)
Cells: human HCT116 colon cancer cells
Knock-down reagent: siRNA pool against human genes, 50 nM
Read-out: 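Log2 levels of six mRNAs (branched-DNA multiplex), adjusted by two reference genes and the non-targeting median, then scored against the average KSR1 knockdown pattern as Pearson r and euclidean distance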
Reading the numbers: mean correlation with KSR1 profile and KSR1 correlation: higher = expression change more like KSR1 knockdown; mean distance from KSR1 profile: higher = expression change less like KSR1 knockdown

no.	gene	mean correlation with KSR1 profile	mean distance from KSR1 profile	KSR1 correlation, replicate 1	KSR1 correlation, replicate 2	KSR1 correlation, replicate 3
1	ABRAXAS2 (abraxas 2, BRISC complex subunit)	-0.0268	3.19	-0.0119	0.0432	-0.166
2	ADORA2A (adenosine A2a receptor)	0.404	2.03	0.306	0.466	0.299
3	ELAVL1 (ELAV like RNA binding protein 1)	0.355	1.54	0.475	0.244	0.553
4	SEC24D (SEC24 homolog D, COPII component)	-0.316	1.66	-0.23	-0.616	-0.064
5	HOXB3 (homeobox B3)	0.653	5.56	0.487	0.548	0.44
6	POLD4 (DNA polymerase delta 4, accessory subunit)	-0.345	6.67	-0.362	-0.124	-0.25
7	KCNA10 (potassium voltage-gated channel subfamily A member 10)	-0.181	1.74	-0.113	-0.348	0.00952
8	ZKSCAN3 (zinc finger with KRAB and SCAN domains 3)	0.73	1.46	-0.15	0.785	0.594
9	EIF3FP2	-0.0029	1.51	-0.375	-0.241	0.298
10	LHB (luteinizing hormone subunit beta)	0.351	2.69	0.336	0.359	0.364
11	BTNL2 (butyrophilin like 2)	0.00474	2.72	0.186	-0.0754	-0.0895
12	RRAGC (Ras related GTP binding C)	0.454	1.23	0.25	0.354	0.784
13	IRAG1 (inositol 1,4,5-triphosphate receptor associated 1)	-0.497	3.31	-0.775	-0.614	-0.0548
14	FAM168A (family with sequence similarity 168 member A)	-0.685	2.61	-0.652	-0.657	-0.705
15	GGA2	-0.609	3.23	-0.541	-0.691	-0.514
16	SMC1B (structural maintenance of chromosomes 1B)	0.472	1.71	0.349	0.162	0.314
17	CALB2 (calbindin 2)	0.131	4.09	0.161	0.21	0.0454
18	CXCR1 (C-X-C motif chemokine receptor 1)	0.465	2.26	0.502	0.583	-0.0742
19	FGF6 (fibroblast growth factor 6)	-0.452	1.92	-0.478	-0.407	-0.378
20	ZNHIT3 (zinc finger HIT-type containing 3)	-0.474	1.23	-0.081	0.183	-0.841
21	SNRNP25 (small nuclear ribonucleoprotein U11/U12 subunit 25)	0.127	1.95	0.223	0.198	0.0955
22	CPA6 (carboxypeptidase A6)	-0.0596	3.02	-0.267	0.1	0.374
23	DCAF16 (DDB1 and CUL4 associated factor 16)	0.519	1.65	0.469	0.342	0.328
24	TRMT1 (tRNA methyltransferase 1)	-0.625	2.79	-0.541	-0.348	-0.615
25	TTC17 (tetratricopeptide repeat domain 17)	-0.515	2.97	-0.564	-0.637	-0.319
26	HLA-DPA1 (major histocompatibility complex, class II, DP alpha 1)	-0.231	1.81	-0.405	-0.343	-0.176
27	TAC1 (tachykinin precursor 1)	0.344	0.855	0.298	0.735	0.198
28	CMPK1 (cytidine/uridine monophosphate kinase 1)	0.0899	1.3	0.372	-0.261	-0.551
29	NXPH3 (neurexophilin 3)	-0.259	2.65	-0.282	-0.296	-0.136
30	ANK2 (ankyrin 2)	-0.113	1.86	0.00165	-0.224	-0.137
31	TADA3 (transcriptional adaptor 3)	0.0695	2.91	0.0791	0.165	0.0504
32	SMC1A (structural maintenance of chromosomes 1A)	-0.322	3.5	-0.247	-0.453	-0.216
33	ADAM29 (ADAM metallopeptidase domain 29)	-0.224	3.01	-0.254	-0.17	-0.314
34	SPDL1 (spindle apparatus coiled-coil protein 1)	0.192	2.31	0.203	-0.0114	0.0577
35	MX1 (MX dynamin like GTPase 1)	-0.547	2.43	-0.582	-0.518	-0.84
36	MTMR3 (myotubularin related protein 3)	0.12	1.97	-0.101	-0.259	0.46
37	ZNF232 (zinc finger protein 232)	0.0563	3.48	-0.0713	0.423	-0.18
38	TBC1D2B (TBC1 domain family member 2B)	0.21	1.79	0.356	0.148	0.202
39	ANKRD11 (ankyrin repeat domain 11)	-0.56	1.71	-0.815	-0.59	-0.577
40	WDTC1 (WD and tetratricopeptide repeats 1)	-0.539	2.32	-0.557	-0.651	-0.171
41	STIM2 (stromal interaction molecule 2)	-0.451	1.65	-0.354	-0.817	-0.416
42	MED16 (mediator complex subunit 16)	-0.386	2.93	-0.285	-0.406	-0.525
43	CP (ceruloplasmin)	0.00431	3.03	0.0737	-0.0952	-0.196
44	FAM120A (family with sequence similarity 120 member A)	-0.362	1.82	-0.427	-0.373	0.0185
45	HTR4 (5-hydroxytryptamine receptor 4)	0.585	1.66	0.567	0.57	0.548
46	HDAC2 (histone deacetylase 2)	0.0368	1.63	0.198	0.0867	-0.127
47	TERF2 (telomeric repeat binding factor 2)	0.707	1.25	0.54	0.734	0.65
48	OXTR (oxytocin receptor)	0.745	1.27	0.609	0.845	0.832
49	BMX (BMX non-receptor tyrosine kinase)	0.739	2.24	0.775	0.742	0.444
50	MGA (MAX dimerization protein MGA)	-0.363	1.09	-0.306	-0.488	-0.0532
51	TTLL1 (TTL family tubulin polyglutamylase complex subunit L1)	0.076	2.04	0.18	-0.256	0.192
52	H4C12 (H4 clustered histone 12)	0.13	1.23	-0.118	-0.102	0.0248
53	CAPNS1 (calpain small subunit 1)	0.476	1.11	0.552	0.553	0.252
54	OR5K1 (olfactory receptor family 5 subfamily K member 1)	-0.577	1.95	-0.241	-0.692	-0.685
55	EAF1 (ELL associated factor 1)	-0.00208	3.72	-0.0469	-0.0986	-0.13
56	GTF2F1 (general transcription factor IIF subunit 1)	-0.346	1.7	-0.24	-0.238	-0.456
57	CLDN9 (claudin 9)	-0.408	1.59	-0.0987	-0.127	-0.613
58	RDH16 (retinol dehydrogenase 16)	-0.21	2.48	-0.235	-0.316	0.0396
59	AGO2 (argonaute RISC catalytic component 2)	0.192	1.82	-0.0472	0.144	0.0675
60	HDDC2 (HD domain containing 2)	-0.189	1.09	-0.0766	-0.0658	-0.363
61	TRPM2	-0.084	0.997	-0.241	0.649	-0.0553
62	DNAJC17 (DnaJ heat shock protein family (Hsp40) member C17)	-0.12	3.93	0.00404	-0.185	-0.345
63	MYBL1 (MYB proto-oncogene like 1)	0.0683	1.53	0.26	0.455	-0.0243

Copied from the listing (11 entries):
no.	gene	mean correlation with KSR1 profile	mean distance from KSR1 profile	KSR1 correlation, replicate 1	KSR1 correlation, replicate 2	KSR1 correlation, replicate 3
37	ZNF232 (zinc finger protein 232)	0.0563	3.48	-0.0713	0.423	-0.18
38	TBC1D2B (TBC1 domain family member 2B)	0.21	1.79	0.356	0.148	0.202
39	ANKRD11 (ankyrin repeat domain 11)	-0.56	1.71	-0.815	-0.59	-0.577
40	WDTC1 (WD and tetratricopeptide repeats 1)	-0.539	2.32	-0.557	-0.651	-0.171
41	STIM2 (stromal interaction molecule 2)	-0.451	1.65	-0.354	-0.817	-0.416
42	MED16 (mediator complex subunit 16)	-0.386	2.93	-0.285	-0.406	-0.525
43	CP (ceruloplasmin)	0.00431	3.03	0.0737	-0.0952	-0.196
44	FAM120A (family with sequence similarity 120 member A)	-0.362	1.82	-0.427	-0.373	0.0185
45	HTR4 (5-hydroxytryptamine receptor 4)	0.585	1.66	0.567	0.57	0.548
46	HDAC2 (histone deacetylase 2)	0.0368	1.63	0.198	0.0867	-0.127
47	TERF2 (telomeric repeat binding factor 2)	0.707	1.25	0.54	0.734	0.65
